From US20190092839A1 come the findings set out here.

The experiment deals with TOMM20-EGFP. The experiment in a line: both split fragments co-expressed with the antigen in HeLa cells, fluorescence microscopy before 488 nm light.

Results are given in words; binding and its absence hold for the method and conditions named. Sequences can lack the tags named with a protein.

B1: N-term VHHGFP-nMagH-mCherry (protein, not shown: large carriers)
chain: MDQVQLVESGGALVQPGGSLRLSCAASGFPVNRYSMRWYRQAPGKEREWVAGMSSAGDRSSYEDSGGGGSGGGGSHTLYAPGGYDIMGYLDQIGNRPNPQVELGPVDTSCALILCDLKQKDTPIVYASEAFLYMTGYSNAEVLGRNCRFLQSPDGMVKPKSTRKYVDSNTINTIRKAIDRNAEVQVEVVNFKKNGQRFVNFLTIIPVRDETGEYRYSMGFQCETE
B1: the binding entry was “no binding”.
